Measured values taken from patent publication US5972639A, “Fluorescence-based assays for measuring cell proliferation” (Irori, priority 1997, dated 1999).

Experiments:
[1] = tested on: HUVEC intracellular acid phosphatase; format: biochemical, human
[2] = tested on: HDMEC intracellular acid phosphatase; test: acid phosphatase assay of HDMEC with AttoPhos/BBTP; format: biochemical, human; conditions: for S/N (signal-to-noise ratio): A/2 plate
Method: (§1) To establish a relation between acid phosphatase activity and cell numbers, cells were seeded at various densities (50-20,000) onto replicate plastic 96-well plates or half area 96-well microtiter plates (Costar) and incubated at 37° C. for 3.5 hours to allow attachment. Cell number was then assessed by measuring intracellular acid phosphatase with three different substrates: p-nitrophenyl phosphate, which has a calorimetric endpoint, 4-methylumbelliferyl phosphate (MUP) and 2'-[2-benzthiazoyl]-6'-hydoxybenzothiazole phosphate bis-[2-amino-2-methyl-13-propanediol] salt (AttoPhos™), which have fluorometric endpoints.
(§2) Plates were incubated for 1 hour at room temperature and the reaction was terminated with 50 μL of stop solution (240 mM diethanolamine, pH 10). Fluorescence was measured at excitation wavelength of 450 nm and emission wavelength of 580 nm using a fluorimeter (Cytofluor 4000, PerSeptive Biosystems). Nonenzymatic hydrolysis was determined in wells containing no cells and subtracted from the experimental values. Since the background is subtracted, in general, the actual signal to noise ratios at lower cell numbers is better than what presented in the table.

CHO-K1 acid phosphatase = test: acid phosphatase assay of CHO-K1 with AttoPhos/BBTP; format: biochemical, Chinese hamster; conditions: A/2 plate
Method: as §1, §2

## O=P(O)(O)Oc1ccc2nc(-c3nc4ccccc4s3)sc2c1 [BBTP, 2'(2-benzothiazoyl)-6'-hydroxy-benzthiazole phosphate]
[1]; 625 HUVEC/well, 96-well plate, AttoPhos 250 μM
  S/N (signal-to-noise ratio): 20
[1]; 625 HUVEC/well, 96-well plate, AttoPhos 500 μM
  S/N (signal-to-noise ratio): 20
[1]; 625 HUVEC/well, half area 96-well (A/2) plate, AttoPhos 250 μM
  S/N (signal-to-noise ratio): 3.4
[1]; 625 HUVEC/well, half area 96-well (A/2) plate, AttoPhos 500 μM
  S/N (signal-to-noise ratio): 3.4
[1]; 1,250 HUVEC/well, 96-well plate, AttoPhos 250 μM
  S/N (signal-to-noise ratio): 34
[1]; 1,250 HUVEC/well, 96-well plate, AttoPhos 500 μM
  S/N (signal-to-noise ratio): 35
[1]; 1,250 HUVEC/well, half area 96-well (A/2) plate, AttoPhos 250 μM
  S/N (signal-to-noise ratio): 6.3
[1]; 1,250 HUVEC/well, half area 96-well (A/2) plate, AttoPhos 500 μM
  S/N (signal-to-noise ratio): 6.2
[1]; 2,500 HUVEC/well, 96-well plate, AttoPhos 250 μM
  S/N (signal-to-noise ratio): 60
[1]; 2,500 HUVEC/well, 96-well plate, AttoPhos 500 μM
  S/N (signal-to-noise ratio): 66
[1]; 2,500 HUVEC/well, half area 96-well (A/2) plate, AttoPhos 250 μM
  S/N (signal-to-noise ratio): 12.1
[1]; 2,500 HUVEC/well, half area 96-well (A/2) plate, AttoPhos 500 μM
  S/N (signal-to-noise ratio): 11.6
[1]; 5,000 HUVEC/well, 96-well plate, AttoPhos 250 μM
  S/N (signal-to-noise ratio): 127
[1]; 5,000 HUVEC/well, 96-well plate, AttoPhos 500 μM
  S/N (signal-to-noise ratio): 133
[1]; 5,000 HUVEC/well, half area 96-well (A/2) plate, AttoPhos 250 μM
  S/N (signal-to-noise ratio): 23.4
[1]; 5,000 HUVEC/well, half area 96-well (A/2) plate, AttoPhos 500 μM
  S/N (signal-to-noise ratio): 24
[1]; 10,000 HUVEC/well, 96-well plate, AttoPhos 250 μM
  S/N (signal-to-noise ratio): 249
[1]; 10,000 HUVEC/well, 96-well plate, AttoPhos 500 μM
  S/N (signal-to-noise ratio): 272
[1]; 10,000 HUVEC/well, half area 96-well (A/2) plate, AttoPhos 250 μM
  S/N (signal-to-noise ratio): 46.9
[1]; 10,000 HUVEC/well, half area 96-well (A/2) plate, AttoPhos 500 μM
  S/N (signal-to-noise ratio): 46.7
[1]; 20,000 HUVEC/well, 96-well plate, AttoPhos 250 μM
  S/N (signal-to-noise ratio): 456
[1]; 20,000 HUVEC/well, 96-well plate, AttoPhos 500 μM
  S/N (signal-to-noise ratio): 494
[1]; 20,000 HUVEC/well, half area 96-well (A/2) plate, AttoPhos 250 μM
  S/N (signal-to-noise ratio): 84.7
[1]; 20,000 HUVEC/well, half area 96-well (A/2) plate, AttoPhos 500 μM
  S/N (signal-to-noise ratio): 82
[2]; 50 HDMEC/well, AttoPhos 100 μM
  S/N (signal-to-noise ratio): 4.8
[2]; 50 HDMEC/well, AttoPhos 250 μM
  S/N (signal-to-noise ratio): 9.1
[2]; 50 HDMEC/well, AttoPhos 500 μM
  S/N (signal-to-noise ratio): 9.3
[2]; 100 HDMEC/well, AttoPhos 100 μM
  S/N (signal-to-noise ratio): 9.4
[2]; 100 HDMEC/well, AttoPhos 250 μM
  S/N (signal-to-noise ratio): 13.8
[2]; 100 HDMEC/well, AttoPhos 500 μM
  S/N (signal-to-noise ratio): 12.6
[2]; 250 HDMEC/well, AttoPhos 100 μM
  S/N (signal-to-noise ratio): 13.7
[2]; 250 HDMEC/well, AttoPhos 250 μM
  S/N (signal-to-noise ratio): 21.2
[2]; 250 HDMEC/well, AttoPhos 500 μM
  S/N (signal-to-noise ratio): 22.8
[2]; 500 HDMEC/well, AttoPhos 100 μM
  S/N (signal-to-noise ratio): 21.5
[2]; 500 HDMEC/well, AttoPhos 250 μM
  S/N (signal-to-noise ratio): 35.7
[2]; 500 HDMEC/well, AttoPhos 500 μM
  S/N (signal-to-noise ratio): 39.6
[2]; 1,000 HDMEC/well, AttoPhos 100 μM
  S/N (signal-to-noise ratio): 38.8
[2]; 1,000 HDMEC/well, AttoPhos 250 μM
  S/N (signal-to-noise ratio): 67.8
[2]; 1,000 HDMEC/well, AttoPhos 500 μM
  S/N (signal-to-noise ratio): 60.8
[2]; 2,500 HDMEC/well, AttoPhos 100 μM
  S/N (signal-to-noise ratio): 90.9
[2]; 2,500 HDMEC/well, AttoPhos 250 μM
  S/N (signal-to-noise ratio): 119.5
[2]; 2,500 HDMEC/well, AttoPhos 500 μM
  S/N (signal-to-noise ratio): 127
[2]; 5,000 HDMEC/well, AttoPhos 100 μM
  S/N (signal-to-noise ratio): 163.5
[2]; 5,000 HDMEC/well, AttoPhos 250 μM
  S/N (signal-to-noise ratio): 227.4
[2]; 5,000 HDMEC/well, AttoPhos 500 μM
  S/N (signal-to-noise ratio): 211
[2]; 10,000 HDMEC/well, AttoPhos 100 μM
  S/N (signal-to-noise ratio): 208.9
[2]; 10,000 HDMEC/well, AttoPhos 250 μM
  S/N (signal-to-noise ratio): 363.6
[2]; 10,000 HDMEC/well, AttoPhos 500 μM
  S/N (signal-to-noise ratio): 336.7
[2]; HDMEC, half area 96-well (A/2) plate (Table 5)
  range in which linearity was maintained: 50-10,000 cells per well
[2]; human dermal microvascular endothelial cells
  optimum pH for the reaction: ~6.5
CHO-K1 acid phosphatase; 250 CHO-K1/well, AttoPhos 100 μM
  S/N (signal-to-noise ratio): 6
CHO-K1 acid phosphatase; 250 CHO-K1/well, AttoPhos 250 μM
  S/N (signal-to-noise ratio): 5.9
CHO-K1 acid phosphatase; 250 CHO-K1/well, AttoPhos 500 μM
  S/N (signal-to-noise ratio): 4.9
CHO-K1 acid phosphatase; 500 CHO-K1/well, AttoPhos 100 μM
  S/N (signal-to-noise ratio): 9
CHO-K1 acid phosphatase; 500 CHO-K1/well, AttoPhos 250 μM
  S/N (signal-to-noise ratio): 8.7
CHO-K1 acid phosphatase; 500 CHO-K1/well, AttoPhos 500 μM
  S/N (signal-to-noise ratio): 6.9
CHO-K1 acid phosphatase; 1,000 CHO-K1/well, AttoPhos 100 μM
  S/N (signal-to-noise ratio): 12.3
CHO-K1 acid phosphatase; 1,000 CHO-K1/well, AttoPhos 250 μM
  S/N (signal-to-noise ratio): 11.2
CHO-K1 acid phosphatase; 1,000 CHO-K1/well, AttoPhos 500 μM
  S/N (signal-to-noise ratio): 9.5
CHO-K1 acid phosphatase; 2,000 CHO-K1/well, AttoPhos 100 μM
  S/N (signal-to-noise ratio): 23.7
CHO-K1 acid phosphatase; 2,000 CHO-K1/well, AttoPhos 250 μM
  S/N (signal-to-noise ratio): 22.7
CHO-K1 acid phosphatase; 2,000 CHO-K1/well, AttoPhos 500 μM
  S/N (signal-to-noise ratio): 20
CHO-K1 acid phosphatase; 4,000 CHO-K1/well, AttoPhos 100 μM
  S/N (signal-to-noise ratio): 42.4
CHO-K1 acid phosphatase; 4,000 CHO-K1/well, AttoPhos 250 μM
  S/N (signal-to-noise ratio): 35.9
CHO-K1 acid phosphatase; 4,000 CHO-K1/well, AttoPhos 500 μM
  S/N (signal-to-noise ratio): 32.9
CHO-K1 acid phosphatase; 8,000 CHO-K1/well, AttoPhos 100 μM
  S/N (signal-to-noise ratio): 84.6
CHO-K1 acid phosphatase; 8,000 CHO-K1/well, AttoPhos 250 μM
  S/N (signal-to-noise ratio): 72
CHO-K1 acid phosphatase; 8,000 CHO-K1/well, AttoPhos 500 μM
  S/N (signal-to-noise ratio): 62.2
CHO-K1 acid phosphatase; 12,000 CHO-K1/well, AttoPhos 100 μM
  S/N (signal-to-noise ratio): 136
CHO-K1 acid phosphatase; 12,000 CHO-K1/well, AttoPhos 250 μM
  S/N (signal-to-noise ratio): 111.7
CHO-K1 acid phosphatase; 12,000 CHO-K1/well, AttoPhos 500 μM
  S/N (signal-to-noise ratio): 83

Read-outs that look alike come from different tables or passages of the source.
